Experimental data reported in the supplement of paper PMC7125110.
± gives the standard error. The uncertainty is large for many entries.

B1: glmS ribozyme (parent)
chain: AUAAAAGCGCCAGAACUACAGAAAUGUAGUUGACGAGGAGGAGGUUUAUCGAAUUUUCGGCGGAUGCCUCCAAA

Variants of: B1
Assay: self-cleavage kobs at 640 uM GlcN6P; higher = faster cleavage; RNA array
Conditions: with glucosamine-6-phosphate
Procedure, shortened: (§1)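 Glucosamine-6-phosphate in HEPES/KCl/Mg(OAc)2 buffer, at 40 μM to 10 mM, was flowed over barcoded ribozyme variants transcribed in situ by E. coli RNA polymerase on sequenced MiSeq chips. Tracking was through a hybridised Cy3 probe at 37 °C. kobs, kcat and KM came from exponential decay fits and weighted Michaelis–Menten fits of normalised per-tile medians.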

Variant | self-cleavage kobs at 640 uM GlcN6P [s⁻¹]
A48U A53U U69C | 2.58e-05 ± 2e-05
G13U A52G | 2.37e-05 ± 1.5e-05
U31G G66U U69G | 4.43e-05 ± 2.4e-05
U47A U55C U69C | 2.98e-05 ± 1.6e-05
G13U U46G A52C C67U C70G | 3.86e-05 ± 2.5e-05
C16G C70A | 2.24e-05 ± 2.1e-05
A15C A52U | 2.41e-05 ± 1.9e-05
A12C G13U C67A | 4.27e-05 ± 2.6e-05
G13C A33G C67A U69A | 6.79e-05 ± 3.4e-05
C11G G59U | 2.07e-05 ± 1.9e-05
A15G G32U C71G | 2.89e-05 ± 1.8e-05
A12G C68A | 0.00025 ± 0.00015
G29C C67A C68G | 6.64e-05 ± 3.6e-05
A15G G32A C58G | 2.22e-05 ± 1.9e-05
A36U U69C | 2.92e-05 ± 2.8e-05
A15U A52U C67G | 4.6e-05 ± 2.3e-05
A14U G40C G66C | 2.4e-05 ± 1.3e-05
U30C U56C | < 1e-05
U30G G66C | 2.63e-05 ± 1.8e-05
G59A C68G C70U | 3.71e-05 ± 3e-05
U56A U57C | 3.13e-05 ± 1.8e-05
A12C A33U | < 1e-05
A36C U54G C70A | 9.47e-05 ± 5.8e-05
U49A C68G | 2.67e-05 ± 1.4e-05

Variant | self-cleavage kobs at 640 uM GlcN6P [s⁻¹]
C50U G66U C70G | 5.84e-05 ± 3.3e-05
G32A U55A C68A | 3.42e-05 ± 2.7e-05
C16A A39U C71A | 2.9e-05 ± 2.6e-05
C50U C61A C68U | 2.58e-05 ± 2.4e-05
G13U U45A A52G | 2.06e-05 ± 2e-05
U45G C68A | 0.000389 ± 0.00038
G13A G32U A39U | 2.19e-05 ± 1.3e-05
A15C A42G C70G | 2.97e-05 ± 2e-05
G51A C71G | 2.4e-05 ± 1.5e-05
A14C A36G U69A | 3.39e-05 ± 2.2e-05
U57C C71A | 2.3e-05 ± 1.8e-05
G32C A36C G37C G62C U69G | 5.17e-05 ± 2.6e-05
A33U G37U C58U C61U C68U | 4.69e-05 ± 3e-05
A14C C16G C58U | 2.97e-05 ± 2.7e-05
G13U U45G | 1.34e-05 ± 1.2e-05
C16A C58U C70A | 4.98e-05 ± 3e-05
U30A U54A C67U C68A | 2.37e-05 ± 2e-05
G13A C50A U69A | 4.05e-05 ± 2.9e-05
U57C C67G | 1.75e-05 ± 1.3e-05
C16U C50G G60U | 2.96e-05 ± 2.9e-05
C16G G51A U69G | 6.62e-05 ± 3.4e-05
G51U U69A C71A | 4.46e-05 ± 2.4e-05
A14C C58U | 2.35e-05 ± 2.1e-05
U56G A64U C70U | 3.46e-05 ± 2.2e-05

Variant | self-cleavage kobs at 640 uM GlcN6P [s⁻¹]
C50U U56A C68U | 3.43e-05 ± 3.3e-05
C50G U55G | 2.02e-05 ± 1.9e-05
G13A U55G C71G | 2.43e-05 ± 2.2e-05
A12U A15G G43A | 3.96e-05 ± 2.6e-05
A12C U31C U54A C67A | 2.93e-05 ± 2.1e-05
A53C U56A G59A | 2.32e-05 ± 2.1e-05
G51U A53U C68A | 3.12e-05 ± 2.2e-05
C11U A15C G51U C70A | 0.000208 ± 0.00012
A12C U30A U31G G38U C67G | 2.82e-05 ± 2.4e-05
U30G A39U G44C | 2.77e-05 ± 2.8e-05
G37C A53U C70U | 2.65e-05 ± 2.7e-05
C34A A36G U69G C70G | 4.12e-05 ± 2.2e-05
A12U U69G C70G | 4.76e-05 ± 2.4e-05
U31C G40U U47A | 2.65e-05 ± 1.8e-05
C16G G66A U69G | 3.5e-05 ± 2.7e-05
C16A C50G U55C | 0.000225 ± 0.00011
U31G U49G C67G | 3.88e-05 ± 2.4e-05
U57A A64U C67U U69G | 3.8e-05 ± 2.3e-05
U30C G51U C68U | 5.27e-05 ± 3.5e-05
A14G A36U C68G | 3.1e-05 ± 2.6e-05
A12C A14U U30A | 2.53e-05 ± 1.9e-05
A33U U69A | 3.26e-05 ± 2.6e-05
G38U G63A C67G | 3.5e-05 ± 2.6e-05

Variants of: B1
Assay: self-cleavage kobs at 10000 uM GlcN6P; higher = faster cleavage; RNA array
Conditions: with glucosamine-6-phosphate
Procedure, shortened: as §1

Variant | self-cleavage kobs at 10000 uM GlcN6P [s⁻¹]
U31G G66U U69G | 1.69e-05 ± 1.7e-05
A12C G13U C67A | 2.3e-05 ± 1.2e-05
G32A U55A C68A | 2.87e-05 ± 2.1e-05
U57C C71A | 1.74e-05 ± 1.2e-05
A33U U69A | 2.1e-05 ± 1.3e-05

Variants of: B1
Assay: self-cleavage kobs at 2500 uM GlcN6P; higher = faster cleavage; RNA array
Conditions: with glucosamine-6-phosphate
Procedure, shortened: as §1

Variant | self-cleavage kobs at 2500 uM GlcN6P [s⁻¹]
G13U U46G A52C C67U C70G | 2.61e-05 ± 2.6e-05
G59A C68G C70U | 3.34e-05 ± 2.9e-05
U49A C68G | 2.47e-05 ± 1.9e-05
C50U G66U C70G | 5.78e-05 ± 2.9e-05
G51A C71G | 2.14e-05 ± 1.4e-05
A33U G37U C58U C61U C68U | 5.96e-05 ± 3.3e-05
A14C C16G C58U | 2.25e-05 ± 1.6e-05
C16G G51A U69G | 3.04e-05 ± 2.9e-05
A14C C58U | 1.38e-05 ± 1.2e-05
U56G A64U C70U | 1.54e-05 ± 1.2e-05
G51U A53U C68A | 3.36e-05 ± 2.8e-05
U30G A39U G44C | 2.4e-05 ± 1.9e-05
C34A A36G U69G C70G | 3.43e-05 ± 1.7e-05
C16A C50G U55C | 9e-05 ± 5.7e-05
U31G U49G C67G | 2.46e-05 ± 1.8e-05
A14G A36U C68G | 3.11e-05 ± 2.7e-05
A12C A14U U30A | 1.86e-05 ± 1.4e-05

A second format for some results above.
Variant,self-cleavage kobs at 2500 uM GlcN6P [s⁻¹]
A14C C58U,1.38e-05 ± 1.2e-05
U56G A64U C70U,1.54e-05 ± 1.2e-05
G51U A53U C68A,3.36e-05 ± 2.8e-05
U30G A39U G44C,2.4e-05 ± 1.9e-05
C34A A36G U69G C70G,3.43e-05 ± 1.7e-05

Variants of: B1
Assay: self-cleavage kobs at 160 uM GlcN6P; higher = faster cleavage; RNA array
Conditions: with glucosamine-6-phosphate
Procedure, shortened: as §1

Variant | self-cleavage kobs at 160 uM GlcN6P [s⁻¹]
C50U C61A C68U | 3.8e-05 ± 2.2e-05
A12C U31C U54A C67A | 2.14e-05 ± 1.8e-05
C34A A36G U69G C70G | 3.34e-05 ± 1.8e-05
A14G A36U C68G | 2.15e-05 ± 2.1e-05
